A short description of series [1]: general procedure: Boc solid-phase peptide synthesis; PAM resin; DCC; preformed symmetrical anhydride for Boc-Gln; DCC-1-hydroxybenzotriazole for. The settings on record: whole synthesis, scale approx. 80 μmol.
Series [2] is described as follows: general procedure: Boc solid-phase peptide synthesis; PAM resin (C-terminal acid); benzhydrylamine (BHA) resin (C-terminal amide); DCC; preformed symmetrical anhydride for Boc-Gln; DCC-1-hydroxybenzotriazole for. The settings on record: whole synthesis.

(Leu^27)-GRF(1-44)-OH showed a crude mass in series [1] of 332 mg. Further, in series [2], the difficulty met result is given as “Noted exceptions which required multiple couplings” and the isolated yield is given as 5%.

Values taken from patent US4732972A (Hoffmann-La Roche Inc., priority 1985, dated 1988).
